According to paper PMC7862700:
Only a part is listed here, and it is no random draw. At the low end of the ranking the order means little.

By UniProt entry, the sequences of proteins in these tests, tags left out. Where a name states a change or a piece, a line headed by the entry shows the natural chain unless it says otherwise.
UniProt O43186: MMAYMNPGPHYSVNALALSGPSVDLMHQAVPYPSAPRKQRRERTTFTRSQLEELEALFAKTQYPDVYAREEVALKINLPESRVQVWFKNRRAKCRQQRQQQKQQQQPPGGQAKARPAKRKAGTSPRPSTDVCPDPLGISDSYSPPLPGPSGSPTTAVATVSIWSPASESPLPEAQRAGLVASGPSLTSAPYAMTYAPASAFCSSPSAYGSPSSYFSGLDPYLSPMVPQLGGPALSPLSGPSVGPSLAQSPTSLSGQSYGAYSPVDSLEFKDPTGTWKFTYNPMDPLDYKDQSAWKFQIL

Assays:
Assay in all cases: DAPPL (digital affinity profiling via proximity ligation, sequencing)
Conditions in all cases: 10 mM Tris-HCl pH 7.5, 50 mM NaCl, 1 mM DTT, 4% glycerol, room temperature, 30 min; GST-TFs on glutathione beads, 16-mer random dsDNA library, 0.1% …; high values mean tight binding; double strand, one strand shown; scale: fold enrichment (6-mer frequency, TF over GST control)
FEV = molecular target: T1, FEV (UniProt Q99581)
T1 sequence: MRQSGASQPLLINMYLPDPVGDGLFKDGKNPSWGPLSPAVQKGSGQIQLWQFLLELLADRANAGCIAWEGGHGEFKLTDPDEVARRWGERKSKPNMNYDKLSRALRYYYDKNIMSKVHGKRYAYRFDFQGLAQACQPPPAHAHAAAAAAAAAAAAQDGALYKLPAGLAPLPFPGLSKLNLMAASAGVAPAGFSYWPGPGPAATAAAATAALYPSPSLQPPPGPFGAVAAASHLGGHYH

CRX = CRX (UniProt O43186)
ELF5 = molecular target: T2, ELF5 (UniProt Q9UKW6-2)
T2 sequence: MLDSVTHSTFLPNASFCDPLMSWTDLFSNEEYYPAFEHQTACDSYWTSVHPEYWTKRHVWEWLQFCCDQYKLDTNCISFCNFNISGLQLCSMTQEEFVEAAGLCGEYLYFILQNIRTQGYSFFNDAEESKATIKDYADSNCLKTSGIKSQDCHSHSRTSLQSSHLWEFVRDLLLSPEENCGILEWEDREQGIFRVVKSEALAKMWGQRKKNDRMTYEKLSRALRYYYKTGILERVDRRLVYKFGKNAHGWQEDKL

Sequence | binding signal (FEV) | binding signal (CRX) | binding signal (ELF5)
CACAGA | 0.861 | 0.81 | 0.752
GAAGGA | 0.718 | 0.561 | 0.888
GGGCAA | 0.852 | 0.674 | 0.815
GCATGG | 0.811 | 0.716 | 0.786
TGCAGT | 0.782 | 0.665 | 0.78
AGACGC | 0.705 | 0.597 | 0.649
TTCGGA | 0.751 | 0.758 | 0.736
GCGGCG | 0.697 | 0.567 | 0.696
GCGTCG | 0.732 | 0.612 | 0.819
AAGAGC | 0.844 | 0.904 | 0.874
CGAGAG | 0.391 | 0.395 | 0.402
GCGCGA | 0.666 | 0.619 | 0.619
CCAGGG | 0.649 | 0.541 | 0.593
GACCGT | 0.412 | 0.36 | 0.422
ACTGAG | 0.751 | 0.718 | 0.656
TGAGAA | 0.725 | 0.715 | 0.667
TCGGAA | 0.561 | 0.388 | 0.572
AGACCG | 0.696 | 0.366 | 0.486
GGGGTC | 0.58 | 0.46 | 0.58
TGGGAG | 0.453 | 0.385 | 0.416

Only binding signal (ELF5) and binding signal (FEV) (4 entries from above):

| Sequence | binding signal (ELF5) | binding signal (FEV) |
| --- | --- | --- |
| TGCAGT | 0.78 | 0.782 |
| AGACGC | 0.649 | 0.705 |
| TTCGGA | 0.736 | 0.751 |
| GCGGCG | 0.696 | 0.697 |

Next results.

Sequence | binding signal (FEV) | binding signal (CRX) | binding signal (ELF5)
CTGTCG | 0.552 | 0.433 | 0.548
CGGAGA | 0.187 | 0.194 | 0.193
GACCAG | 0.61 | 0.537 | 0.583
GGAGCA | 0.465 | 0.365 | 0.458
GAGTAA | 0.524 | 0.622 | 0.548
ACTAGT | 0.832 | 0.843 | 0.819
GAGTGT | 0.511 | 0.427 | 0.495
CGTGAT | 0.462 | 0.486 | 0.473
TGCGGG | 0.754 | 0.676 | 0.697
GAACCG | 0.857 | 0.466 | 0.711
AGTCCA | 0.704 | 0.569 | 0.704
GGACAC | 0.812 | 0.465 | 0.766
AGACAA | 0.811 | 0.774 | 0.758
CGTTAG | 0.752 | 0.778 | 0.805
GGTGCT | 0.858 | 0.758 | 0.866
GGCATG | 0.858 | 0.616 | 0.812
ACCAGA | 0.887 | 1.06 | 0.878
GCACCG | 0.862 | 0.489 | 0.65
CAGGCG | 0.27 | 0.229 | 0.27
GACACC | 0.987 | 0.635 | 0.843

Sequence | binding signal (FEV) | binding signal (CRX) | binding signal (ELF5)
AGGGGT | 0.793 | 0.757 | 0.857
GCAGCG | 0.8 | 0.589 | 0.766
GGGCGG | 0.455 | 0.276 | 0.41
AGAGGG | 0.707 | 0.694 | 0.744
TGGAGG | 0.474 | 0.471 | 0.486
TGTAGG | 0.787 | 0.667 | 0.774
GACGCT | 0.786 | 0.669 | 0.734
GGCCGG | 0.808 | 0.344 | 0.523
CAGACC | 0.888 | 0.602 | 0.815
GGGTTA | 0.765 | 0.934 | 0.831
CAGGCC | 0.725 | 0.594 | 0.662
ACGGCG | 0.8 | 0.68 | 0.779
AAGTCG | 0.489 | 0.483 | 0.495
TAGCCA | 0.805 | 0.964 | 0.792
GTATAG | 0.902 | 0.801 | 0.933
GGGCGT | 0.462 | 0.361 | 0.461
CGGCGG | 0.65 | 0.423 | 0.565
CACGAG | 0.799 | 0.762 | 0.748
GTAGTC | 0.667 | 0.547 | 0.729
GCCGTG | 0.244 | 0.209 | 0.238
